From publication PMC3864901, “A Conserved Sequence Extending Motif III of the Motor Domain in the Snf2-Family DNA Translocase Rad54 Is Critical for ATPase Activity” (PLoS ONE, 2013)
Where a chain is given by its changes, count along the chain named. No constants are given. Whether binding was seen depends on the method and setting. For part of these data: Binding seen in cells or lysates may run through a third protein. Some results given as binding are weak or reduced against the parent protein; the word gives no strength. Sequences can lack the tags named with a protein.

Sequences of proteins named here, by UniProt entry; tags and fusion partners are left off.
UniProt P15873: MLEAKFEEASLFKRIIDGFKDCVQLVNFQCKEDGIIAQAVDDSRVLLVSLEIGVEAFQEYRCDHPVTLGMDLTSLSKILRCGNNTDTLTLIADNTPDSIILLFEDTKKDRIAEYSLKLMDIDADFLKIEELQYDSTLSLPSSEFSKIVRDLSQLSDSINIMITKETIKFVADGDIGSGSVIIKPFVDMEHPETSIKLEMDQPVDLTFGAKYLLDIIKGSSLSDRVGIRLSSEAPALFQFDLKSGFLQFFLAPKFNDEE

Key:
[1] = molecular target: T1, Rad54 (two-hybrid fusion) (Saccharomyces cerevisiae) (UniProt P32863); assay: two-hybrid; two-hybrid analysis, data not shown
T1 sequence: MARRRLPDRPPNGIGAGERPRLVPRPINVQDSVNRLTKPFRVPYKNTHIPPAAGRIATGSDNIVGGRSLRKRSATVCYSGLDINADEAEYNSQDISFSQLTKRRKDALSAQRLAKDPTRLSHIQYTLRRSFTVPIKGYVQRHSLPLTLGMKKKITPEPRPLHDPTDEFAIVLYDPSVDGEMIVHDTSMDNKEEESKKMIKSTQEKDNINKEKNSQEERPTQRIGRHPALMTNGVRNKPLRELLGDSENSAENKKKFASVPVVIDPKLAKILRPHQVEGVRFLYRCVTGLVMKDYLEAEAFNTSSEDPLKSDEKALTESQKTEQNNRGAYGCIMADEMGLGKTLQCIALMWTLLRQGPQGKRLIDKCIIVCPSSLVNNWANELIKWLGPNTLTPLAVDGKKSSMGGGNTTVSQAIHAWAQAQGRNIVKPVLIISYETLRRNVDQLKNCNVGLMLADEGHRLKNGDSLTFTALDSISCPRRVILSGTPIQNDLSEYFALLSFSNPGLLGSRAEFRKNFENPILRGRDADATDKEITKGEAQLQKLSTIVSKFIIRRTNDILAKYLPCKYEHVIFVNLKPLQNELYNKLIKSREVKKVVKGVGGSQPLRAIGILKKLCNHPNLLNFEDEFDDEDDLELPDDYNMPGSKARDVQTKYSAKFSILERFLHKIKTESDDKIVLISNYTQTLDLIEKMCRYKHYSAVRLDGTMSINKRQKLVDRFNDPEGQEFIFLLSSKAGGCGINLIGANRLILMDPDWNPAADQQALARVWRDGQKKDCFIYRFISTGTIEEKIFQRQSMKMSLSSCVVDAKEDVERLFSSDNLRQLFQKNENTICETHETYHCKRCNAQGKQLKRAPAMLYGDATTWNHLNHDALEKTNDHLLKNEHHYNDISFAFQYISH

[2] = molecular target: T2, GST-Rad54 (wild type Saccharomyces cerevisiae Rad54) (Saccharomyces cerevisiae) (UniProt P32863); assay: pull-down; purified GST-Rad54 (or GST) incubated with PCNA bacterial extract in 25 mM Tris-HCl pH 7.5, 50 mM NaCl, 1 mM DTT, 10% glycerol, 0.05% NP-40, room temperature 1 hr; captured on glutathione sepharose; washed with 100 mM NaCl; Coomassie or immunoblot; also under increased ionic strength (Fig. S1); only the target purified
T2 sequence: T1 sequence

[3] = molecular target: T3, GST-Rad54-Y494A-F495A (Saccharomyces cerevisiae) (UniProt P32863); assay: as above
T3 sequence: T1 sequence with Y494A, F495A

Q: “PCNA (two-hybrid fusion) (from UniProt P15873 1-258)” was tested. Which binding [1] did it give?
A: binds

Q: “yeast PCNA in bacterial extract (from UniProt P15873 1-258)” was tested. Which binding [2] did it give?
A: binds

Q: And the binding [3]?
A: binds
